Our source for the binding values is patent EP4652202A1.

Chains of the proteins cited; added tags and fusions are not shown. Residues count along the entry.
UniProt P78324, residues 31-369: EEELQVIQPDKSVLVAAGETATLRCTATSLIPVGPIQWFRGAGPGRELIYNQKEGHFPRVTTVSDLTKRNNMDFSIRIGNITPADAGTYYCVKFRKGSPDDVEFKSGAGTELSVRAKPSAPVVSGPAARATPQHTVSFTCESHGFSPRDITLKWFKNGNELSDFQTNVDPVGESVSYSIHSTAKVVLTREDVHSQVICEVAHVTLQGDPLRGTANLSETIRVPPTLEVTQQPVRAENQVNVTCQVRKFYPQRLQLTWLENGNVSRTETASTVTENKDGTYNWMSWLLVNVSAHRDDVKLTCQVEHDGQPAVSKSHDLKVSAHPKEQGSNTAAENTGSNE

The assay deals with Biotinylated human SIRPα extracellular domain recombinant protein (human) (UniProt P78324). Briefly: flow cytometry of yeast-displayed scFv with 1nM bio-SIRPα in 1M guanidine, compared with the wildtype 2534m1V3 control.

Results are given in words; binding and its absence hold for the method and conditions named. Some entries that bind do so weakly or less than the wild type.

B1: Clone 201 (anti-SIRPα scFv mutant of 2534m1V3) (scFv)
scFv: EIVLTQSPATLSLSPGERATLSCRASQSVSSSYLYWYQQKPGQAPKLLIYSASNRASGIPARFSGSGSGTDYTLTISSLEPEDFAVYYCHQWSSYPYTFGQGTKLEIKGGGGSGGGGSGGGGSGGGGSEVQLVQSGAEVKKPGATVKISCKVSGFNIKDYYMHWVRQAPGKGLEWIGRVDPEDAETKYAEKFQGRVTITADTSTDTAYMELSSLRSEDTAVYYCDRGLVYWGQGTLVTVSS
With B1, the binding result is on record as “binds”.
